Reference: PMC10783636, “Chlorophyll biosynthesis under the control of arginine metabolism” (Cell Reports, 2023)
These are yes or no findings as the source states them, for the method shown. In cells and extracts the contact can be indirect. Some binding calls cover weakened binding; strength is not graded here. For part of these data: Where a sequence is shown, tags or fusion partners need not be part of it. One block for each binder: values may come before it.

Amino acid sequences for entries named in this document (tags omitted).
UniProt P77581: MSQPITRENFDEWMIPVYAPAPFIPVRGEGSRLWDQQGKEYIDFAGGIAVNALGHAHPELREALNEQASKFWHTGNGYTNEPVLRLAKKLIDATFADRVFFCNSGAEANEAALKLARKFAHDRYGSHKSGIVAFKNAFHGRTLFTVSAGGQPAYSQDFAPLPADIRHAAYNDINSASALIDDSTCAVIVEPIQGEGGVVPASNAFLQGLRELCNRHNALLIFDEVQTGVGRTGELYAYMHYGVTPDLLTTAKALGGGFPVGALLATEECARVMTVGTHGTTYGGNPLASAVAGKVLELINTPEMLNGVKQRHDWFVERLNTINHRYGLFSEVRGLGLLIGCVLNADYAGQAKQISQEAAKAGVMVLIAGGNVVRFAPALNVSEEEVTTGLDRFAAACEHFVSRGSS

Columns and labels:
[1] = biological target: T1, 3×FLAG-tagged ArgD (N-acetylornithine aminotransferase) of Synechocystis sp. PCC 6803 (Synechocystis sp. PCC 6803) (UniProt P73133); experiment: co-IP; f.ArgD or f.AstC purified from the soluble fraction of Synechocystis strains (ΔargD or ΔcphB background; cells with nitrate, without or with 1 mM Orn for 24 h) on anti-FLAG M2 gel, eluted with 3xFLAG peptide; SDS-PAGE, stained, blotted and probed with anti-Gun4 and anti-CphB
T1 sequence: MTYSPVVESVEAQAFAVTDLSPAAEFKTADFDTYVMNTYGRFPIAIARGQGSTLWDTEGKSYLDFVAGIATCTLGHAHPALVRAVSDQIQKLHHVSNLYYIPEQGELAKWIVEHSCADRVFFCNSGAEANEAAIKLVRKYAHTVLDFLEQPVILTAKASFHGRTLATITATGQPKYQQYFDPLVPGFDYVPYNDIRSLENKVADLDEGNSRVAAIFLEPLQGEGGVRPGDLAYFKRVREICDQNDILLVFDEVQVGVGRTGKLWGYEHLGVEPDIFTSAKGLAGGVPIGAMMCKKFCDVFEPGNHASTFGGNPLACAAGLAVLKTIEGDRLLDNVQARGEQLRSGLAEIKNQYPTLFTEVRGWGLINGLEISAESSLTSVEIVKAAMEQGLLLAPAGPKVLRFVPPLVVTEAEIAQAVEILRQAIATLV

[2] = biological target: FLAG-tagged AstC of E. coli, the ArgD homolog, expressed in Synechocystis (Escherichia coli) (UniProt P77581); experiment: as above

- binding [1]: binds
B1: 3×FLAG-tagged ArgD (N-acetylornithine aminotransferase) of Synechocystis sp. PCC 6803 (enzyme, UniProt P73133 1-429, looked up)
chain: T1 sequence
notes: N-acetylornithine aminotransferase ArgD, Synechocystis sp; PCC 6803, gene slr1022; synthetic argD gene with optimised codon usage cloned into pPD-NFLAG; f.ArgD printed as 49.8 kDa; also called f.ArgD; source: Synechocystis f.argD+/ΔargD or f.argD+/ΔcphB strain (psbAII promoter), soluble fraction; not shown: 3xFLAG, N-terminal, kept

- binding [1]: binds
- binding [2]: no binding
B2: cyanophycinase CphB of Synechocystis sp. PCC 6803 (native) (enzyme, UniProt P73832 1-271, looked up)
chain: MPLSSQPAILIIGGAEDKVHGREILQTFWSRSGGNDAIIGIIPSASREPLLIGERYQTIFSDMGVKELKVLDIRDRAQGDDSGYRLFVEQCTGIFMTGGDQLRLCGLLADTPLMDRIRQRVHNGEISLAGTSAGAAVMGHHMIAGGSSGEWPNRALVDMAVGLGIVPEIVVDQHFHNRNRMARLLSAISTHPELLGLGIDEDTCAMFERDGSVKVIGQGTVSFVDARDMSYTNAALVGANAPLSLHNLRLNILVHGEVYHQVKQRAFPRVT
notes: cyanophycinase CphB, Synechocystis sp; PCC 6803, gene slr2001; printed as 29.4 kDa; Migrated like a large oligomer (>200 kDa) on the BN gel; source: endogenous, Synechocystis soluble fraction
